Results are given in words; binding and its absence hold for the method and conditions named. Binding seen in cells or lysates may run through a third protein.
Target: GFP-NSP2 (non-structural protein 2 of PRRSV fused to GFP) (PRRSV (strain of the plasmid not stated))
Test: co-IP; GFP pull-down: 293T cells transfected with GFP-nsp2 or pEGFP-C1, lysed at 24 h; clarified lysates incubated with GFP-Trap beads 2 h at 4 °C; bound proteins eluted with 2 x SDS sample buffer; Western blot with antibodies against 14-3-3β, ε, γ and τ/ζ

B1: 14-3-3τ (protein, UniProt P27348 1-245)
chain: MEKTELIQKAKLAEQAERYDDMATCMKAVTEQGAELSNEERNLLSVAYKNVVGGRRSAWRVISSIEQKTDTSDKKLQLIKDYREKVESELRSICTTVLELLDKYLIANATNPESKVFYLKMKGDYFRYLAEVACGDDRKQTIDNSQGAYQEAFDISKKEMQPTHPIRLGLALNFSVFYYEILNNPELACTLAKTAFDEAIAELDTLNEDSYKDSTLIMQLLRDNLTLWTSDSAGEECDAAEGAEN
- binding: no binding

B2: 14-3-3γ (protein, UniProt P61981 1-247)
chain: MVDREQLVQKARLAEQAERYDDMAAAMKNVTELNEPLSNEERNLLSVAYKNVVGARRSSWRVISSIEQKTSADGNEKKIEMVRAYREKIEKELEAVCQDVLSLLDNYLIKNCSETQYESKVFYLKMKGDYYRYLAEVATGEKRATVVESSEKAYSEAHEISKEHMQPTHPIRLGLALNYSVFYYEIQNAPEQACHLAKTAFDDAIAELDTLNEDSYKDSTLIMQLLRDNLTLWTSDQQDDDGGEGNN
- binding: no binding

— article PMC6394020
